Experimental findings from publication PMC8933468 are described below.

Protein sequences, listed by entry. Tags and fused reporters are not part of them.
UniProt P38936: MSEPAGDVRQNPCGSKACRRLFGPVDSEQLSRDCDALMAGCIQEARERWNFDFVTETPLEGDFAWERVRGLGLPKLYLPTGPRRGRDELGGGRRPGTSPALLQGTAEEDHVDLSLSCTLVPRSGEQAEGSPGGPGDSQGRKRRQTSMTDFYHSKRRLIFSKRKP
UniProt Q12834: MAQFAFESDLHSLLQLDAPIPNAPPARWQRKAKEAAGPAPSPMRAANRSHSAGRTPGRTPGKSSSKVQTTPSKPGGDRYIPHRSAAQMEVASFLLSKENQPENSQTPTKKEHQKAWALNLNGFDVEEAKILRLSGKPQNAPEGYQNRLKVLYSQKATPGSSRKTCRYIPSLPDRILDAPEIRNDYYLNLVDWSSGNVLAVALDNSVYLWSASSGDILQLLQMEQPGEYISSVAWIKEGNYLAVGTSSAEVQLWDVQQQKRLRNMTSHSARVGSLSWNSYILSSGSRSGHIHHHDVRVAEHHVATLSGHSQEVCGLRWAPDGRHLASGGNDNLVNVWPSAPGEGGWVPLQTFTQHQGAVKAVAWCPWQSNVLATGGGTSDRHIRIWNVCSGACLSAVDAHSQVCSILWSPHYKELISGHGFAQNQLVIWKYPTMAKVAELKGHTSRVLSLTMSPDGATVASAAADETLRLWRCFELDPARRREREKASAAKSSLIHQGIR
UniProt Q9NZJ0: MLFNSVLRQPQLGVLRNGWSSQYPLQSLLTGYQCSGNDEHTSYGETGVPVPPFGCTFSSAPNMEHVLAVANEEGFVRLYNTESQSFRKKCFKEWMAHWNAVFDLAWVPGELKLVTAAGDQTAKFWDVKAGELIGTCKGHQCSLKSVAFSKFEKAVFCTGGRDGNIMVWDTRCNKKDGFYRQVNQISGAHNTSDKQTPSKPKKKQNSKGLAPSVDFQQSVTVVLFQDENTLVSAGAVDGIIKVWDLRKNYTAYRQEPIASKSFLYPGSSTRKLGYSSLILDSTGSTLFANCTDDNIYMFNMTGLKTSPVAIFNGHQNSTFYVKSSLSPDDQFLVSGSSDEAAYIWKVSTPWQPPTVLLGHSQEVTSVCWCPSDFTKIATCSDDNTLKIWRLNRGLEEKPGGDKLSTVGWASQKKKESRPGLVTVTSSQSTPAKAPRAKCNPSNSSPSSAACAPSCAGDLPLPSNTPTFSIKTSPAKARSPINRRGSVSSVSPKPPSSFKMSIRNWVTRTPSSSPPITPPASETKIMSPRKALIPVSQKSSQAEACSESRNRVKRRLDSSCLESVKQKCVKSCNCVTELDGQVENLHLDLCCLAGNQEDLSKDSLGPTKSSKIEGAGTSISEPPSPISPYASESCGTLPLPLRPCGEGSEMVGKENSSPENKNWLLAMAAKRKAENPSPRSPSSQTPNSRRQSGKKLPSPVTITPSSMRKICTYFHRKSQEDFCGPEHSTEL

Results are given in words; binding and its absence hold for the method and conditions named. In cells and extracts the contact can be indirect. Some entries that bind do so weakly or less than the wild type. For some of these results: Tags and fused reporters may be left off the sequences shown.

Test [1] concerns the target p21 stably overexpressed in HuH-7 and HepG2 cells (UniProt P38936). Briefly: co-IP; HuH-7 and HepG2 cells stably overexpressing p21, transfected with CMTM6 plasmids (HuH-7) or CMTM6 small interfering RNAs (HepG2).
Test [2] deals with T1, endogenous CMTM6 (human (endogenous in HuH-7, HepG2 and 293T)) (UniProt Q9NX76).
T1 sequence: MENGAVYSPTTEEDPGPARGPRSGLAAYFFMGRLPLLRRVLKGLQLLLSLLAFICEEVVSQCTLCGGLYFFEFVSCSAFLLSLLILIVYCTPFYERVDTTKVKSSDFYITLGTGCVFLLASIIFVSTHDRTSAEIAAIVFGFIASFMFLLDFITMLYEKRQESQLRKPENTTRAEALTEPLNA
Briefly: co-IP; endogenous proteins; HuH-7 and HepG2 cell lysates immunoprecipitated with control IgG, anti-CMTM6 or anti-p21 antibody; Western blot.

The target in test [3] is T2, Flag-CMTM6 (UniProt Q9NX76).
T2 sequence: T1 sequence
Briefly: co-IP; 293T cells transfected with either Flag-CMTM6 or Myc-p21; immunoprecipitation with control IgG, anti-Flag or anti-Myc antibody, Protein A/G magnetic beads, IP Lysis Buffer, 4 °C; Western blot. For orientation: In western blotting, separated proteins are transferred to a membrane and probed.

In test [4] the target is endogenous p21 (human (endogenous in HuH-7, HepG2 and 293T)) (UniProt P38936). As to the kind of experiment: co-IP; endogenous proteins; HuH-7 and HepG2 cell lysates immunoprecipitated with control IgG, anti-CMTM6 or anti-p21 antibody; Western blot.
Test [5] deals with Myc-p21 (UniProt P38936). As to the kind of experiment: co-IP; 293T cells transfected with either Flag-CMTM6 or Myc-p21; immunoprecipitation with control IgG, anti-Flag or anti-Myc antibody, Protein A/G magnetic beads, IP Lysis Buffer, 4 °C; Western blot.

Consider CDC20 (from UniProt Q12834 1-499), for which, in test [1], the binding entry is reported as “binds”.

In the case of CDT2 (from UniProt Q9NZJ0 1-730), the binding result in test [1] is “binds”.

Take “endogenous p21 (from UniProt P38936 1-164)”: the binding result in test [2] and in test [3] was “binds” throughout.

B1: CMTM6 expressed from CMTM6 plasmids in HuH-7 cells (protein, UniProt Q9NX76 1-183)
chain: T1 sequence
On to B1, for which, in test [1], the binding entry is listed as “binds”.

B2: endogenous CMTM6 (protein, UniProt Q9NX76 1-183)
chain: T1 sequence
On to B2, for which the binding result in test [4] and in test [5] was “binds” each time.
